{"sequences": {"note": "Protein sequences, listed by entry. Tags and fused reporters are not part of them. Residues count along the entry.", "UniProt P08191, residues 22-300": "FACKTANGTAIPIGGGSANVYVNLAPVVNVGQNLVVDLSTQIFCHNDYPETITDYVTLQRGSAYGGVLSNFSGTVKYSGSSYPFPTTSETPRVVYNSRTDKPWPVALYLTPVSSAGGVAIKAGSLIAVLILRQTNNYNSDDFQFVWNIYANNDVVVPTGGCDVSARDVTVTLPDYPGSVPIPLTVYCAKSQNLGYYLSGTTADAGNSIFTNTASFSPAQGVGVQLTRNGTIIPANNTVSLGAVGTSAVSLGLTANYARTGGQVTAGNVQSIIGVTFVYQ"}, "source": "paper PMC3650583", "about": "“Dissection of Pilus Tip Assembly by the FimD Usher Monomer” (Journal of Molecular Biology, 2013)", "binders": {"B1": {"name": "FimG (natural protein)", "chain": "ADVTITVNGKVVAKPCTVSTTNATVDLGDLYSFSLMSAGAASAWHDVALELTNCPVGTSRVTASFSGAADSTGYYKNQGTAQNIQLELQDDSGNTLNTGATKTVQVDDSSQSAHFPLQVRALTVNGGATQGTIQAVISITYTYS", "notes": "also called unlabelled FimG; FimC:FimG (as chaperone complex)"}}, "target": "FimH (Escherichia coli (uropathogenic)) (UniProt P08191)", "assay": "SEC; FimD:FimC:FimH mixed with chaperone:subunit complex at a 1:1.5 ratio, then gel filtration (Superose-12) in 50 mM Tris pH 8.0, 150 mM NaCl, 1 mM EDTA, 0.05% DDM; both purified", "note": "No constants are given. Whether binding was seen depends on the method and setting. Some entries that bind do so weakly or less than the wild type.", "data": [{"binder": "B1", "values": [{"measurement": "binding", "result": "binds"}]}]}
